Values from PubChem BioAssay AID1259405 (NCATS, 2018)
Test: 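Mouse-designed siRNAs used to find CHO productivity engineering targets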 (primary screen). Cell system: Chinese hamster CHO-K1 ovary cells with stable secreted eGFP expression. Reagent: single siRNA against mouse genes, 0.8 pmol siRNA per well (2 µl of 400 nM stock). Timing: 3 days. Detection: 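Per-well intracellular GFP measured by laser scanning cytometry, plus viability from ATP luminescence, each relative to plate median of non-targeting control wells, in %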. Direction: GFP, % of control: higher = more GFP per well, higher productivity; viability (ATP), % of control: higher = more viable cells (more ATP). Active means: 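a knock-down is called active if GFP reaches 120% or more of non-targeting control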.
The deposit covers about 50,000 reagents; shown is a part drawn at random. Over the whole deposit, about 4,000 (8%) are marked active. 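Mouse siRNA library applied to hamster cells; one well for each siRNA.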 The numbers tell different reagents against one gene apart.

| gene | reagent no. | GFP, % of control | viability (ATP), % of control | call |
| --- | --- | --- | --- | --- |
| Kirrel3os | 1 | 78.5 | 58.6 | inactive |
| Kirrel3os | 2 | 85.3 | 68.5 | inactive |
| Kirrel3os | 3 | 73.2 | 80.7 | inactive |
| Or8g55 | 1 | 67.2 | 59.7 | inactive |
| Or8g55 | 2 | 48.7 | 66.9 | inactive |
| Or8g55 | 3 | 79.3 | 58.7 | inactive |
| Spry4 | 1 | 61.4 | 88.8 | inactive |
| Spry4 | 2 | 115 | 95.4 | inactive |
| Spry4 | 3 | 105 | 130 | inactive |
| Pbsn | 1 | 83.7 | 99.6 | inactive |
| Pbsn | 2 | 85.1 | 88.1 | inactive |
| Pbsn | 3 | 63.1 | 52.1 | inactive |
| Csgalnact2 | 1 | 89.1 | 88.3 | inactive |
| Csgalnact2 | 2 | 61 | 131 | inactive |
| Csgalnact2 | 3 | 91.9 | 81.5 | inactive |
| Serpina1b | 1 | 94 | 88.1 | inactive |
| Serpina1b | 2 | 36.3 | 29.7 | inactive |
| Serpina1b | 3 | 89.3 | 119 | inactive |
| Madcam1 | 1 | 67.8 | 68.5 | inactive |
| Madcam1 | 2 | 66.5 | 36.2 | inactive |
| Madcam1 | 3 | 89.7 | 58.9 | inactive |
| Ctcf | 1 | 85.7 | 69.5 | inactive |
| Ctcf | 2 | 86.9 | 80.9 | inactive |
| Htt | 1 | 34.9 | 60.5 | inactive |
| Htt | 2 | 100 | 96.4 | inactive |
| Mrps2 | 1 | 67 | 72.9 | inactive |
| Mrps2 | 2 | 56 | 51.8 | inactive |
| Mrps2 | 3 | 80.9 | 67.2 | inactive |
| Pla2g7 | 1 | 85.6 | 71.6 | inactive |
| Pla2g7 | 2 | 203 | 159 | active |
| B3gnt5 | 1 | 134 | 66.4 | active |
| B3gnt5 | 2 | 104 | 163 | inactive |
| B3gnt5 | 3 | 105 | 114 | inactive |
| Or11h4 | 1 | 89.3 | 52.8 | inactive |
| Or11h4 | 2 | 78.9 | 92.4 | inactive |
| Or11h4 | 3 | 52.2 | 55.8 | inactive |
